Reference: PMC9061857, “A fluorogenic probe for granzyme B enables in-biopsy evaluation and screening of response to anticancer immunotherapies” (Nature Communications, 2022)

Amino acid sequences for entries named in this document (tags omitted). Residues count along the entry.
UniProt P10144, 21-247 limits assumed: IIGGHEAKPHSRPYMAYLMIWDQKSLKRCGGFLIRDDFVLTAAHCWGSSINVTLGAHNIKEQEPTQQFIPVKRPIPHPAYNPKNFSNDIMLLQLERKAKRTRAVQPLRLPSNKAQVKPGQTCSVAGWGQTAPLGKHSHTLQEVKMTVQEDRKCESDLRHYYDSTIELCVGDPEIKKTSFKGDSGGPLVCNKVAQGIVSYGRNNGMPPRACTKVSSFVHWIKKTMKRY

Target: human GzmB (hGzmB) (Homo sapiens, UniProt P10144)
Experiment: HPLC conversion of fluorogenic peptides by hGzmB
Format: biochemical
Settings: probe 25 μM (Ac-IEPD-AMC 50 μM), TRIS buffer, 37 °C, HPLC-UV

CCC(C)C(NC(=O)CCc1ccc2n1[B-](F)(F)[N+]1=C(C)C=C(C)C1=C2)C(=O)NC(CCC(=O)O)C(=O)N1CCCC1C(=O)NC(CC(=O)O)C(=O)NCCNC(=O)c1ccc(N=Nc2ccc(N(C)C)cc2)cc1 (stereo not shown)
HPLC conversion (20 nM hGzmB, 2 h): 3% and < 5%

Some entries of the source have several records that differ or are many. This list holds those alone. An entry can have further records. Values given together differ, and nothing given here explains why; some may be repeats, others may stem from another dose, organism or construct than stated.
